These are yes or no findings as the source states them, for the method shown. In cells and extracts the contact can be indirect. Some entries that bind do so weakly or less than the wild type.
B1: epithelial cell adhesion molecule (protein, UniProt P16422 24-314)
chain: QEECVCENYKLAVNCFVNNNRQCQCTSVGAQNTVICSKLAAKCLVMKAEMNGSKLGRRAKPEGALQNNDGLYDPDCDESGLFKAKQCNGTSMCWCVNTAGVRRTDKDTEITCSERVRTYWIIIELKHKAREKPYDSKSLRTALQKEITTRYQLDPKFITSILYENNVITIDLVQNSSQKTQNDVDIADVAYYFEKDVKGESLFHSKKMDLTVNGEQLDLDPGQTLIYYVDEKAPEFSMQGLKAGVIAVIVVVVIAVVAGIVVLVISRKKRMAKYEKAEIKEMGEMHRELNA
B2: apoptosis-stimulating protein 2 of p53 (protein, UniProt Q13625 1-1128)
chain: MMPMFLTVYLSNNEQHFTEVPVTPETICRDVVDLCKEPGESDCHLAEVWCGSERPVADNERMFDVLQRFGSQRNEVRFFLRHERPPGRDIVSGPRSQDPSLKRNGVKVPGEYRRKENGVNSPRMDLTLAELQEMASRQQQQIEAQQQLLATKEQRLKFLKQQDQRQQQQVAEQEKLKRLKEIAENQEAKLKKVRALKGHVEQKRLSNGKLVEEIEQMNNLFQQKQRELVLAVSKVEELTRQLEMLKNGRIDSHHDNQSAVAELDRLYKELQLRNKLNQEQNAKLQQQRECLNKRNSEVAVMDKRVNELRDRLWKKKAALQQKENLPVSSDGNLPQQAASAPSRVAAVGPYIQSSTMPRMPSRPELLVKPALPDGSLVIQASEGPMKIQTLPNMRSGAASQTKGSKIHPVGPDWSPSNADLFPSQGSASVPQSTGNALDQVDDGEVPLREKEKKVRPFSMFDAVDQSNAPPSFGTLRKNQSSEDILRDAQVANKNVAKVPPPVPTKPKQINLPYFGQTNQPPSDIKPDGSSQQLSTVVPSMGTKPKPAGQQPRVLLSPSIPSVGQDQTLSPGSKQESPPAAAVRPFTPQPSKDTLLPPFRKPQTVAASSIYSMYTQQQAPGKNFQQAVQSALTKTHTRGPHFSSVYGKPVIAAAQNQQQHPENIYSNSQGKPGSPEPETEPVSSVQENHENERIPRPLSPTKLLPFLSNPYRNQSDADLEALRKKLSNAPRPLKKRSSITEPEGPNGPNIQKLLYQRTTIAAMETISVPSYPSKSASVTASSESPVEIQNPYLHVEPEKEVVSLVPESLSPEDVGNASTENSDMPAPSPGLDYEPEGVPDNSPNLQNNPEEPNPEAPHVLDVYLEEYPPYPPPPYPSGEPEGPGEDSVSMRPPEITGQVSLPPGKRTNLRKTGSERIAHGMRVKFNPLALLLDSSLEGEFDLVQRIIYEVDDPSLPNDEGITALHNAVCAGHTEIVKFLVQFGVNVNAADSDGWTPLHCAASCNNVQVCKFLVESGAAVFAMTYSDMQTAADKCEEMEEGYTQCSQFLYGVQEKMGIMNKGVIYALWDYEPQNDDELPMKEGDCMTIIHREDEDEIEWWWARLNDKEGYVPRNLLGLYPRIKPRQRSLA

Sequences of proteins named here, by UniProt entry; tags and fusion partners are left off.
UniProt P46013: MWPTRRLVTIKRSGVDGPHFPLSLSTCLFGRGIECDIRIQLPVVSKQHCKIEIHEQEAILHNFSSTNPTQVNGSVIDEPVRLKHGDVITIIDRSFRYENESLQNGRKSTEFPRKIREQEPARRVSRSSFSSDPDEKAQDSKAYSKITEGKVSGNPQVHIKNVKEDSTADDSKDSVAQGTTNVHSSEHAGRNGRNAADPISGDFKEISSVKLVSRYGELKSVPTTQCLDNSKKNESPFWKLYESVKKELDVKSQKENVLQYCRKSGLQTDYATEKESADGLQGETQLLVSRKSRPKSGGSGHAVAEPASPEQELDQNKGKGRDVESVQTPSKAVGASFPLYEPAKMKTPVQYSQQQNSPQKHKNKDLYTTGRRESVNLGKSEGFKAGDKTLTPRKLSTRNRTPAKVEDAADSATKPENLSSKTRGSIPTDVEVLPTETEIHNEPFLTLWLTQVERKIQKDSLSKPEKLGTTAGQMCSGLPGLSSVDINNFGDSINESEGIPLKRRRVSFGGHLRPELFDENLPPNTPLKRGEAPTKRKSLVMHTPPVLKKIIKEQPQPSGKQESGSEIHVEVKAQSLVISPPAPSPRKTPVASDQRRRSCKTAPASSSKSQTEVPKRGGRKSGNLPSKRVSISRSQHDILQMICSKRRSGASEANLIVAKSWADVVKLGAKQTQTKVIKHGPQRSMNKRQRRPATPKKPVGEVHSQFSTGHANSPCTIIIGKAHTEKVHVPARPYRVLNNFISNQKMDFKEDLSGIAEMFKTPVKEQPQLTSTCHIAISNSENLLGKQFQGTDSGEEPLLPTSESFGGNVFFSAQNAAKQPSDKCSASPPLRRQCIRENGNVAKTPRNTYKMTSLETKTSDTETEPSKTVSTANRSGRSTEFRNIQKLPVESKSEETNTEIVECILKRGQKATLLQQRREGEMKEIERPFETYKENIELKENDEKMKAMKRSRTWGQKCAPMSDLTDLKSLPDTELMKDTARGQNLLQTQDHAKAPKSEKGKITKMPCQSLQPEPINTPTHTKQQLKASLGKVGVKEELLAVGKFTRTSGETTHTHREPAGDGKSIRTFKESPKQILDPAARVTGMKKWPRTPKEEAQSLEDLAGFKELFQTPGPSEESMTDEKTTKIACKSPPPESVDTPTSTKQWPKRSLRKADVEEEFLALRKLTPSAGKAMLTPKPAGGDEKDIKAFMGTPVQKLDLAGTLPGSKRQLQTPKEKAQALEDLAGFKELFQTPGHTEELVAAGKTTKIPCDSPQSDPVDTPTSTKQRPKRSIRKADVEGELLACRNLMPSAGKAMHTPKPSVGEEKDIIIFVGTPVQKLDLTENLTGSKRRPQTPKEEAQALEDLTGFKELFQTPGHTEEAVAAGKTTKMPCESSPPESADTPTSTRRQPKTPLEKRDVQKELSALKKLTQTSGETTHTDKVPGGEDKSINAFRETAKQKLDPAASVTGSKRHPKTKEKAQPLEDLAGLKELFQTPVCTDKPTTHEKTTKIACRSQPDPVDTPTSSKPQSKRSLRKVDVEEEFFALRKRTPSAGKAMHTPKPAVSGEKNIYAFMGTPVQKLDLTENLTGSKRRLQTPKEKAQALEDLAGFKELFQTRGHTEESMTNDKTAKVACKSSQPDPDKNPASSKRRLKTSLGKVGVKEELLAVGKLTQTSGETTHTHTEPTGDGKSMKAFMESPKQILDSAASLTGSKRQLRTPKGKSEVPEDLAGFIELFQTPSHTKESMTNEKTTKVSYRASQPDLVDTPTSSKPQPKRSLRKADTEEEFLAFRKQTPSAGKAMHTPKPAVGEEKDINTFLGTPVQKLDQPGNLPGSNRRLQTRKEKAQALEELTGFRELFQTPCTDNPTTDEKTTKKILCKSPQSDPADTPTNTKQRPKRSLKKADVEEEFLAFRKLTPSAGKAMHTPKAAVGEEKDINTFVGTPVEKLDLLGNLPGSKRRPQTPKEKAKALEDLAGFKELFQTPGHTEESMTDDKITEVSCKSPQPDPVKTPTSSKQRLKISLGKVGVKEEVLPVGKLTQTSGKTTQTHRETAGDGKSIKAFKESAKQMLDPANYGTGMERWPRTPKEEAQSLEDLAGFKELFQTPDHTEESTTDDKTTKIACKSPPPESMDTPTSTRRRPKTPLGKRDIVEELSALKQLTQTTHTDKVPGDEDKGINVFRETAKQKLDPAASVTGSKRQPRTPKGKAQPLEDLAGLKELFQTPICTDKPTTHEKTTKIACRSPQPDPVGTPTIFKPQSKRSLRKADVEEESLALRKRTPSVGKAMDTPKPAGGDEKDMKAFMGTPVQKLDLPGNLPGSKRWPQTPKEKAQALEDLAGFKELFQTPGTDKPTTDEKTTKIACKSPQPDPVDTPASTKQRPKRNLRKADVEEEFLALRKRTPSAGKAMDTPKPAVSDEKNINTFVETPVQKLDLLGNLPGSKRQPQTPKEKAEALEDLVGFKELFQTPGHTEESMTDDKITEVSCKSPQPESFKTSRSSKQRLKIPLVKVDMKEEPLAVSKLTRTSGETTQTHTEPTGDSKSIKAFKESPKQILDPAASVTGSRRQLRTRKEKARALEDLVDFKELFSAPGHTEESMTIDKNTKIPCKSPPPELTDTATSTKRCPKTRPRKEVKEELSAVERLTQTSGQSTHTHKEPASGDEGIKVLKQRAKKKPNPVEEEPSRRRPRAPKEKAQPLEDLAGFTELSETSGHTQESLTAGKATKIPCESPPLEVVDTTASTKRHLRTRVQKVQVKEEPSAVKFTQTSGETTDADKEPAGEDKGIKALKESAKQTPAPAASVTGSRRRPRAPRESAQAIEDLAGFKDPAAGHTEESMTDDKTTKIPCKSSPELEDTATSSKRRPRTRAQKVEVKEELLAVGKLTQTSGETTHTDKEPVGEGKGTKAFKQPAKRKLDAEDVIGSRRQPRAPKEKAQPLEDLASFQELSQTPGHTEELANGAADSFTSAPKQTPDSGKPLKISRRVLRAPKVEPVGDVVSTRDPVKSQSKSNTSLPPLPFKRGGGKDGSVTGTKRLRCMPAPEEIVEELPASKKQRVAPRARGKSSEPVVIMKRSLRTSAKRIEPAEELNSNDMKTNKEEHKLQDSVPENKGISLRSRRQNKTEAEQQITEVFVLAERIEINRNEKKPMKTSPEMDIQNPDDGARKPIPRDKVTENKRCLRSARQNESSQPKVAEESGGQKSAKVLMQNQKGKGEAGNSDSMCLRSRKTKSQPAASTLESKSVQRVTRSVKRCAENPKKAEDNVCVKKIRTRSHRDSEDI

What follows are molecules tested against T1, alanine aminotransferase 1 (human (endogenous in HepG2)) (UniProt P24298) (assay: co-IP; HepG2 lysate, primary antibody overnight at 4 C, Protein A+G Agarose, washed 5 times with PBS; ALT1 as bait, Western blot of the precipitate; agarose-only and IgG control groups).
T1 sequence: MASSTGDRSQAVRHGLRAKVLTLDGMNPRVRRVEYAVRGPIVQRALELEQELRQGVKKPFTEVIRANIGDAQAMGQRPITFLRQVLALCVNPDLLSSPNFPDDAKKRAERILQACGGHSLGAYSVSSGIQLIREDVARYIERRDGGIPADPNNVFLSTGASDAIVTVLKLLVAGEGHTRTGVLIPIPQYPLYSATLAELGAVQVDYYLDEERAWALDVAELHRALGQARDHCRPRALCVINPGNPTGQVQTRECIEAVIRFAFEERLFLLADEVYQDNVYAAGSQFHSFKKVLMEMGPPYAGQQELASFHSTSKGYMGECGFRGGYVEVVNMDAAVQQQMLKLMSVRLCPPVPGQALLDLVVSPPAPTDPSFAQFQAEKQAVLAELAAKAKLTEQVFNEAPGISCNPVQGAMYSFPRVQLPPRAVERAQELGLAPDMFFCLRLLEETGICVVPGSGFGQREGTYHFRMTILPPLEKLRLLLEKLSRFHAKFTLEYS
For KI67 (from UniProt P46013 1-3256), the binding was “binds”. B1 was tested, and the binding was “binds”. With B2 the binding was “binds”.

Reference: publication PMC9512495
